These results are taken from patent publication US20110177504A1.

Assay [1] addresses T1, LYPD5 (as used in the co-immunoprecipitation studies) (human) (UniProt Q6UWN5).
T1 sequence: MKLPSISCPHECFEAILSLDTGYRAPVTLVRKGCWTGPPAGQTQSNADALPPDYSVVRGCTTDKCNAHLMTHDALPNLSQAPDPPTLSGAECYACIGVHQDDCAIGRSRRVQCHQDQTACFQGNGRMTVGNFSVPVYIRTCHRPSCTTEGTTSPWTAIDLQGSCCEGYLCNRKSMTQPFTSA
Briefly: co-immunoprecipitation (FIG. 34B).

Assay [2] has as its target T1, LYPD5 (as used in the co-immunoprecipitation studies) (human). As to the kind of experiment: co-immunoprecipitation (FIG. 33B).
For assay [3], the target named is T2, GLG-1 (ESL-1) polypeptide, expressed in transfected COS cells (human) (UniProt Q92896).
T2 sequence (looked up): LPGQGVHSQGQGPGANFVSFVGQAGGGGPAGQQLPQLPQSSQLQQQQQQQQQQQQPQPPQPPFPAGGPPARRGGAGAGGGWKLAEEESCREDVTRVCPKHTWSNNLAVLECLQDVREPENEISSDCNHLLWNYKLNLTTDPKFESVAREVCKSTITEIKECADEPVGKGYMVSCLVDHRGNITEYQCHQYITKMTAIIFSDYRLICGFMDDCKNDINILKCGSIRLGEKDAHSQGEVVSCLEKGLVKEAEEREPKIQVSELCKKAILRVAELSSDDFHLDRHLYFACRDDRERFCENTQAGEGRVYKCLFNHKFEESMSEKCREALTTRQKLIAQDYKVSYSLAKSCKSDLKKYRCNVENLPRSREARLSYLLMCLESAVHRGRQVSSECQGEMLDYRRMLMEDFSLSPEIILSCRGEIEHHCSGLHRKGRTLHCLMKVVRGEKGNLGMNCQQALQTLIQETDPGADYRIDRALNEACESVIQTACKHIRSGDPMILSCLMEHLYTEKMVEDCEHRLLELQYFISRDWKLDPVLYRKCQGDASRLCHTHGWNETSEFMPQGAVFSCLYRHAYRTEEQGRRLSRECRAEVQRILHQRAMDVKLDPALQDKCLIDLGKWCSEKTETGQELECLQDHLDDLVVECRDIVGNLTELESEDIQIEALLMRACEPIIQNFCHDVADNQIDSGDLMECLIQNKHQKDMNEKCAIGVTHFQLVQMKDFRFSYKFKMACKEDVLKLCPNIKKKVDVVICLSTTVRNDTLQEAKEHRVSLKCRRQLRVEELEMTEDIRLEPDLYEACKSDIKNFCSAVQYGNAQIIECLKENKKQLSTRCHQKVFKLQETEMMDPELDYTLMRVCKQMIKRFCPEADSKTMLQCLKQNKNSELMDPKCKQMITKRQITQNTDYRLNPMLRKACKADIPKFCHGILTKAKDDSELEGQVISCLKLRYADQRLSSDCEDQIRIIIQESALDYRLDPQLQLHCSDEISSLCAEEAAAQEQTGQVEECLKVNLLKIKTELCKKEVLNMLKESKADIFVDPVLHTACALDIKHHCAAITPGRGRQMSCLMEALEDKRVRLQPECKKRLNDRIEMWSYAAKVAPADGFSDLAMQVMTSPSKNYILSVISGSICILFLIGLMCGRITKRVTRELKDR
Briefly: expression cloning; transfected COS cells stained with LYPD5-Fc.

Assay [4] deals with T2, GLG-1 (ESL-1) polypeptide, expressed in transfected COS cells (human). Briefly: transfected COS cells stained with LYPD5-Fc.
Assay [5] addresses T1, LYPD5 (as used in the co-immunoprecipitation studies) (human). As to the kind of experiment: co-immunoprecipitation (FIG. 35B).

No constants are given. Whether binding was seen depends on the method and setting. For some of these results: Binding seen in cells or lysates may run through a third protein. Some entries that bind do so weakly or less than the wild type. For some of these results: Where a sequence is shown, tags or fusion partners need not be part of it.

B1: GLG-1 ECD Fragment 4 (protein, human, UniProt Q92896 796-1145, looked up)
chain: RVSLKCRRQLRVEELEMTEDIRLEPDLYEACKSDIKNFCSAVQYGNAQIIECLKENKKQLSTRCHQKVFKLQETEMMDPELDYTLMRVCKQMIKRFCPEADSKTMLQCLKQNKNSELMDPKCKQMITKRQITQNTDYRLNPMLRKACKADIPKFCHGILTKAKDDSELEGQVISCLKLRYADQRLSSDCEDQIRIIIQESALDYRLDPQLQLHCSDEISSLCAEEAAAQEQTGQVEECLKVNLLKIKTELCKKEVLNMLKESKADIFVDPVLHTACALDIKHHCAAITPGRGRQMSCLMEALEDKRVRLQPECKKRLNDRIEMWSYAAKVAPADGFSDLAMQVMTSPSKN
Take B1: the binding entry in assay [1] and in assay [2] was “binds” in each case.

B2: GLG-1 ECD Fragment 1 (protein, human, UniProt Q92896 26-285, looked up)
chain: GAEKLPGQGVHSQGQGPGANFVSFVGQAGGGGPAGQQLPQLPQSSQLQQQQQQQQQQQQPQPPQPPFPAGGPPARRGGAGAGGGWKLAEEESCREDVTRVCPKHTWSNNLAVLECLQDVREPENEISSDCNHLLWNYKLNLTTDPKFESVAREVCKSTITEIKECADEPVGKGYMVSCLVDHRGNITEYQCHQYITKMTAIIFSDYRLICGFMDDCKNDINILKCGSIRLGEKDAHSQGEVVSCLEKGLVKEAEEREPKI
B2: the binding entry in assay [1] and in assay [2] was “binds” throughout.

B3: single GLG-1 domain 670 (protein, human, UniProt Q92896 670-728, looked up)
chain: ECRDIVGNLTELESEDIQIEALLMRACEPIIQNFCHDVADNQIDSGDLMECLIQNKHQK
As to B3, in assay [1], the binding result was “binds”.

B4: single GLG-1 domain 858 (protein, human, UniProt Q92896 858-921, looked up)
chain: RCHQKVFKLQETEMMDPELDYTLMRVCKQMIKRFCPEADSKTMLQCLKQNKNSELMDPKCKQMI
For B4, the binding result in assay [1] is reported as “binds”.

B5: GLG-1 ECD Fragment 2 (protein, human, UniProt Q92896 286-537, looked up)
chain: QVSELCKKAILRVAELSSDDFHLDRHLYFACRDDRERFCENTQAGEGRVYKCLFNHKFEESMSEKCREALTTRQKLIAQDYKVSYSLAKSCKSDLKKYRCNVENLPRSREARLSYLLMCLESAVHRGRQVSSECQGEMLDYRRMLMEDFSLSPEIILSCRGEIEHHCSGLHRKGRTLHCLMKVVRGEKGNLGMNCQQALQTLIQETDPGADYRIDRALNEACESVIQTACKHIRSGDPMILSCLMEHLYTEK
Take B5: the binding entry in assay [1] and in assay [2] was “binds” throughout.

B6: GLG-1 ECD Fragment 3 (protein, human, UniProt Q92896 538-795, looked up)
chain: MVEDCEHRLLELQYFISRDWKLDPVLYRKCQGDASRLCHTHGWNETSEFMPQGAVFSCLYRHAYRTEEQGRRLSRECRAEVQRILHQRAMDVKLDPALQDKCLIDLGKWCSEKTETGQELECLQDHLDDLVVECRDIVGNLTELESEDIQIEALLMRACEPIIQNFCHDVADNQIDSGDLMECLIQNKHQKDMNEKCAIGVTHFQLVQMKDFRFSYKFKMACKEDVLKLCPNIKKKVDVVICLSTTVRNDTLQEAKEH
Turning to B6, the binding result in assay [1] and in assay [2] was “binds” in each case.

B7: single GLG-1 domain 609 (protein, human, UniProt Q92896 609-669, looked up)
chain: RLSRECRAEVQRILHQRAMDVKLDPALQDKCLIDLGKWCSEKTETGQELECLQDHLDDLVV
For B7, the binding entry in assay [1] is given as “binds”.

B8: single GLG-1 domain 215 (protein, human, UniProt Q92896 215-285, looked up)
chain: QCHQYITKMTAIIFSDYRLICGFMDDCKNDINILKCGSIRLGEKDAHSQGEVVSCLEKGLVKEAEEREPKI
Turning to B8, the binding entry in assay [1] was “binds”.

B9: single GLG-1 domain 729 (protein, human, UniProt Q92896 729-795, looked up)
chain: DMNEKCAIGVTHFQLVQMKDFRFSYKFKMACKEDVLKLCPNIKKKVDVVICLSTTVRNDTLQEAKEH
Take B9: the binding entry in assay [1] is reported as “binds”.

B10: LYPD5-Fc protein (Fc fusion, not shown: a dimerising Fc or GST)
chain: MKLPSISCPHECFEAILSLDTGYRAPVTLVRKGCWTGPPAGQTQSNADALPPDYSVVRGCTTDKCNAHLMTHDALPNLSQAPDPPTLSGAECYACIGVHQDDCAIGRSRRVQCHQDQTACFQGNGRMTVGNFSVPVYIRTCHRPSCTTEGTTSPWTAIDLQGSCCEGYLCNRKSMTQPFTSA
With B10, the binding entry in assay [3] and in assay [4] was “binds” throughout.

B11: single GLG-1 domain 150 (protein, human, UniProt Q92896 150-214, looked up)
chain: EISSDCNHLLWNYKLNLTTDPKFESVAREVCKSTITEIKECADEPVGKGYMVSCLVDHRGNITEY
As for B11, the binding entry in assay [1] was “binds”.

Take EESCREDVTRVCPKHTWSNNLAVLECLQDVREPEN (peptide, human, UniProt Q92896 115-149, looked up) [single GLG-1 domain 115]: the binding result in assay [5] and in assay [1] was “binds” in each case.

B12: single GLG-1 domain 538 (protein, human, UniProt Q92896 538-608, looked up)
chain: MVEDCEHRLLELQYFISRDWKLDPVLYRKCQGDASRLCHTHGWNETSEFMPQGAVFSCLYRHAYRTEEQGR
On to B12, for which the binding result in assay [1] was “binds”.
